{
  "source": "patent US20230028658A1",
  "about": "“EXPANDED DOSAGE REGIMENS FOR INTEGRIN INHIBITORS” (Pliant Therapeutics, Inc., priority 2021, published 2023)",
  "test": "Plasma Cmax timing in Example B13",
  "type": "in vivo, human",
  "settings": "healthy subjects, 20 or 40 mg daily",
  "note": "At least one read-out could not be matched to a standard name with certainty.",
  "data": [
    {"smiles": "COCCN(CCCCc1ccc2c(n1)NCCC2)CC[C@H](Nc1ncnc2ccccc12)C(=O)O", "note": "[Compound 5, (S)-4-((2-methoxyethyl) (4-(5,6,7,8-tetrahydro-1,8-naphthyridin-2-yl)butyl)amino)-2-(quinazolin-4-ylamino) butanoic acid]", "values": [
      {"measurement": "median time of plasma Cmax post-dose", "value": 2.5, "unit": "h"}
    ]}
  ]
}
